According to paper PMC7240069:

Assays:
[1] = target: human FXR ligand binding domain (LBD, residues 243-472) (human); assay: AlphaScreen or HTRF; hexahistidine detection kit; about 20-40 nM His6-FXR LBD, 20-100 nM biotinylated cofactor peptide, 5 ug/mL donor and acceptor beads; 50 mM MOPS, 50 mM NaF, 0.05 mM CHAPS, 0.1 mg/mL BSA, pH 7.4; with 1 uM OCA; both purified
[2] = target: human FXR ligand binding domain (LBD, residues 243-472) (human); assay: AlphaScreen or HTRF; hexahistidine detection kit; about 20-40 nM His6-FXR LBD, 20-100 nM biotinylated cofactor peptide, 5 ug/mL donor and acceptor beads; 50 mM MOPS, 50 mM NaF, 0.05 mM CHAPS, 0.1 mg/mL BSA, pH 7.4; with vidofludimus (1 uM, Figure 1A; dose series, Figures 1B-D); both purified

binding [1]: binds
binding [2]: binds
Binder: PDAASKHKQLSELLRGGSG (biotin on the N-terminus) [SRC3-3 peptide, N-terminally biotinylated]

These are yes or no findings as the source states them, for the method shown. Binding calls can cover weak binding; strength is not graded here.
